Data on two molecules can be found in paper PMC9039263.

Results are given in words; binding and its absence hold for the method and conditions named. In cells and extracts the contact can be indirect. Some binding calls cover weakened binding; strength is not graded here.

In assay [1] the target is T1, FBJ osteosarcoma oncogene related antigen 1 (Fra-1) (rat (endogenous in primary thoracic aortic VSMCs)) (UniProt P10158).
T1 sequence: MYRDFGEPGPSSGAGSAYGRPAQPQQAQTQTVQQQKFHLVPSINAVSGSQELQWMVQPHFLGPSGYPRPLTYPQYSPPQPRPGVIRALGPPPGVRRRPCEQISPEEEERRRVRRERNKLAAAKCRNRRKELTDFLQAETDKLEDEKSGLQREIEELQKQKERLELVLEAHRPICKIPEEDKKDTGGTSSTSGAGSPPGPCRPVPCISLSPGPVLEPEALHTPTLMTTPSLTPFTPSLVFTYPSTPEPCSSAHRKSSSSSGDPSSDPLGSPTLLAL
Briefly: co-IP; endogenous proteins in lysates of VSMCs infected with C. pneumoniae (5 × 10^5 IFU) for 24 h; 500 μg cellular protein, 2 μg anti-JunB or anti-Fra-1 antibody, Protein A/G PLUS-Agarose, 4°C overnight; Western blot.

Assay [2] addresses T2, JunB Proto-Oncogene (JunB) (rat (endogenous in primary thoracic aortic VSMCs)) (UniProt P24898).
T2 sequence: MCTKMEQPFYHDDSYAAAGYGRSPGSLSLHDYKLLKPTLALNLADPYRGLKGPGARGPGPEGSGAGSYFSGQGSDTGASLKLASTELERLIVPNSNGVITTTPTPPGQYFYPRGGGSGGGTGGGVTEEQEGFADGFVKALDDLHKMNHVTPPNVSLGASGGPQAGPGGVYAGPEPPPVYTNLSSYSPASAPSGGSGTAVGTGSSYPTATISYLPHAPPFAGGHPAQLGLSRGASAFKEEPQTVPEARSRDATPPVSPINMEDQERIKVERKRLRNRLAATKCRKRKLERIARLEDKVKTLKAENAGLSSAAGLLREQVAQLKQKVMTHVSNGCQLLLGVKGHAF
The description is as above.

B1: JunB Proto-Oncogene (JunB) (protein, UniProt P24898 1-344)
chain: MCTKMEQPFYHDDSYAAAGYGRSPGSLSLHDYKLLKPTLALNLADPYRGLKGPGARGPGPEGSGAGSYFSGQGSDTGASLKLASTELERLIVPNSNGVITTTPTPPGQYFYPRGGGSGGGTGGGVTEEQEGFADGFVKALDDLHKMNHVTPPNVSLGASGGPQAGPGGVYAGPEPPPVYTNLSSYSPASAPSGGSGTAVGTGSSYPTATISYLPHAPPFAGGHPAQLGLSRGASAFKEEPQTVPEARSRDATPPVSPINMEDQERIKVERKRLRNRLAATKCRKRKLERIARLEDKVKTLKAENAGLSSAAGLLREQVAQLKQKVMTHVSNGCQLLLGVKGHAF
Consider B1, for which the binding entry in assay [1] is “binds”.

B2: FBJ osteosarcoma oncogene related antigen 1 (Fra-1) (protein, UniProt P10158 1-275)
chain: MYRDFGEPGPSSGAGSAYGRPAQPQQAQTQTVQQQKFHLVPSINAVSGSQELQWMVQPHFLGPSGYPRPLTYPQYSPPQPRPGVIRALGPPPGVRRRPCEQISPEEEERRRVRRERNKLAAAKCRNRRKELTDFLQAETDKLEDEKSGLQREIEELQKQKERLELVLEAHRPICKIPEEDKKDTGGTSSTSGAGSPPGPCRPVPCISLSPGPVLEPEALHTPTLMTTPSLTPFTPSLVFTYPSTPEPCSSAHRKSSSSSGDPSSDPLGSPTLLAL
On to B2, for which the binding entry in assay [2] was “binds”.
